From US20120231996A1, “Phalloidin derivatives and methods for their synthesis” (priority 2006, published 2012)
At least one peptide structure holds a part that was inferred or is arguable (an end, a ring closure or a residue).

Test system: F-actin
Assay: F-actin staining of fixed BS-C-1 cells, fluorescence microscopy
Type: cell-based, mammalian

## C[C@@H]1NC(=O)[C@H](CCC(=O)NCCCCCNC(=O)c2ccc3c(c2)C(=O)OC32c3ccc(N(C)C)cc3Oc3cc(N(C)C)ccc32)NC(=O)[C@@H]2Cc3c([nH]c4ccccc34)SC[C@H](NC(=O)[C@@H]([C@H](C)O)NC1=O)C(=O)N1C[C@@H](O)C[C@H]1C(=O)N[C@@H](C)C(=O)N2 [compound 7, Cys-DPro-Ala-Trp]
Fixed BS-C-1 cells pretreated with natural phalloidin prior to addition of 7
  Actin filament staining after pretreatment with natural phalloidin (specificity for F-actin): completely abolished
Fixed BS-C-1 cells treated with 7 at 20 nM followed by extensive washing
  F-actin staining pattern: F-actin staining pattern typical of commercially available phalloidin conjugates
